The target in this assay is rhesus DLL3 (rhesus) (UniProt F6TFV4). Put plainly: ELISA (protein), FACS (cells).

Chains of the proteins cited; added tags and fusions are not shown. Lines headed by an entry give the natural chain unless they say otherwise; changes in a name come on top. A line that says so, or that is headed by a name, gives the form on record, which may keep a tag or linker.
rhesus DLL3 (F6TFV4, form named): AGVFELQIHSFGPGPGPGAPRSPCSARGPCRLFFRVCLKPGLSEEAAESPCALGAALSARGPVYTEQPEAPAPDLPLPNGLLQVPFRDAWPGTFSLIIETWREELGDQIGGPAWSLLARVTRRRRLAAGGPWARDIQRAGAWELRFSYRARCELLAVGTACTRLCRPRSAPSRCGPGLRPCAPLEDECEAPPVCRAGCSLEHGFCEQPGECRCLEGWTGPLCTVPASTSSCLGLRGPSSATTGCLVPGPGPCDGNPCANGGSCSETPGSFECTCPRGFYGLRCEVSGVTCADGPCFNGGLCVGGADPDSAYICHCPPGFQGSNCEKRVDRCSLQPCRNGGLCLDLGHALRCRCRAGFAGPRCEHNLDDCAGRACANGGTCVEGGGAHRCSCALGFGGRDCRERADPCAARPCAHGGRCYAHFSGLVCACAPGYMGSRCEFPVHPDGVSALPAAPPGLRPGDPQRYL

The results in this text go back to patent US20220249563A1 (LEGEND BIOTECH IRELAND, published 2022).

Results are given in words; binding and its absence hold for the method and conditions named. Some results given as binding are weak or reduced against the parent protein; the word gives no strength.

B1: AS64617 HCAb (Fc fusion, not shown: a dimerising Fc or GST)
chain: QVQLVESGGGSVQAGGSLRLSCAASGYTDRCSMAWYRQAPGKERELVSRISTSGFTNYAASVKGRFTISQDNAKNTVYLQMNSLNPGDTGMYYCAIIVGRTCSLNYWGNGILVTVSS
B1: the binding entry is “binds”.

B2: AS64062 HCAb (Fc fusion, not shown: a dimerising Fc or GST)
chain: QVRLVESGGGSVQVGGSLRLSCAASRSPYSSSRCMGWFRQAPGKEREGVAALYTGGGSTSYADSVKGRFTISQDNAKNTVYLQMNSLKPEDTAMYYCAAVVPRGGSCRLDERGYYHWGQGTQVTVSS
For the molecule B2, the binding result is given as “binds”.

B3: AS76422 (VHH)
VHH: QVKLVESGGGSVQAGGSLRLSCAASGYTFAGNCLGWFRQAPGKGREGVVTYNNFGVANYADSVKGRFTVSQDNAKNTLLLQMNSLEPEDTAMYYCAADRRDGRRWSQPCEWNTWGQGTQVTVSS
notes: camel sdAb; crude E. coli supernatant
As for B3, the binding result is “binds”.

B4: AS64228 (VHH)
VHH: QVQLKESGGGSIQAGGSLRLSCAASGVSYNRCSMGWYRQAPGKGRELVSRIQPGGNTYYADSVKGRFTVSQDNAKNTVSLQMNSLKPEDTAMYYCNALCWRENVNYWGQGTQVTVSS
notes: as for B3
With B4, the binding result is reported as “binds”.

B5: AS68351 (VHH)
VHH: QVQLEESGGGLVQPGGSLRLSCAASGDTFRAYYMNWVRQAPGKGFEWVSGISASGGRTSYADSVKGRFTISRDNAKNTLYLQLNSLSTEDTGMYYCVKGAVRLSTSSVRDSSWGQGTQVTVSS
notes: as for B3
As to B5, the binding entry is given as “binds”.

B6: AS64142 (VHH)
VHH: QVHLMESGGGLVQTGGSLRLSCTASGFTFDRNAMRWYRQAPGKEREGVSCIDWTGANIAYADSVKGRFTISRDNAKNTLYLQMNSLKPEDTGMYYCAADTTSGYCSGFWSTSRYSWGQGTQVTVSS
notes: as for B3
Take B6: the binding entry is “binds”.

B7: AS64057 (VHH)
VHH: QVQLEESGGGLVQTGGSLRLSCTASGFTFDRNAMRWYRQAPGKEREGVSCISWTGANIAYADSVKGRFTISRDNAKNTLYLQMNSLKPEDTGMYYCAADTTSGSCSGFWSTSRYYWGQGTQVTVSS
notes: as for B3
For B7, the binding result is on record as “binds”.

B8: AS56788 Fab (Fab, V domains shown)
VH: EVQLVESGGGLVQPGGSLRLSCAASGFNISSYSMHWVRQAPGKGLEWVAYISSYYGYTYYADSVKGRFTISADTSKNTAYLQMNSLRAEDTAVYYCARYSYYYGMDYWGQGTLVTVSS
VL: DIQMTQSPSSLSASVGDRVTITCRASQSVSSAVAWYQQKPGKAPKLLIYSASSLYSGVPSRFSGSRSGTDFTLTISSLQPEDFATYYCQQHYAPSLITFGQGTKVEIK
Consider B8, for which the binding entry is listed as “binds”.

B9: AS68320 (VHH)
VHH: QVHLVESGGDSVQAGGSLRLSCAASGYTYNTNYMGWFRQAPGKEREGVAAIYRHSGNTAYADSVKGRFTISQDYAKNTVYLQMNSLKPEDTAMYYCAAGRAGPWALMRPTEFGYWGQGTQVTVSS
notes: as for B3
Consider B9, for which the binding entry is recorded as “binds”.

B10: AS64052 HCAb (Fc fusion, not shown: a dimerising Fc or GST)
chain: QVHLMESGGGSVQAGGSLRLSCAASGYTYRSNFMGWFRQAPGKEREGIATIHSGVATTYYADSVKGRFTISQDNAKNTVYLQMNSLKPEDTAMYYCAAGGPPANADRWYPLRPPGYNYWGQGTQVTVSS
For the molecule B10, the binding result is on record as “binds”.

B11: AS64634 (VHH)
VHH: QVRLVESGGGSVQAGGSLRLSCAASGYSFRGDFMCMGWFRQTPGKGREGVAVFYPGGGSTNYADSAKGRFTISQDNAKNTMYLQMNTLKPEDTAMYYCAARRWVSGTCYWDSDFHYWGQGTQVTVSS
notes: as for B3
On to B11, for which the binding result is given as “binds”.

B12: AS64443 (VHH)
VHH: QVHLVESGGGSVQAGGSLRLSCAASGYTDSSVYIGWFRQAPGKEREEVAIIYTGGESTHYRSSVKGRFTVSQDNAKNTLYLQMNSLKPEDTAMYYCAARFPAVTYWGQGTQVTVSS
notes: as for B3
On to B12, for which the binding result is “binds”.

B13: AS64511 HCAb (Fc fusion, not shown: a dimerising Fc or GST)
chain: QVQLVESGGGSVQAGGSLRLSCAASRATYSTNYISWFRQAPGKEREAVATITTGDGETAYADSVKGRFTISRDNAKNTVYLQMNSLKPEDTAMYYCAANLRIGGDWFDGRDFRAWGQGTQVTVSS
notes: camel sdAb fused with human IgG1 hinge and Fc (chimeric HCAb), crude HEK293 medium
On to B13, for which the binding result is listed as “binds”.

B14: AS64395 (VHH)
VHH: QVRLVESGGGSVQAGGSLRLSCAASGSTYSTNFMGWFRQAPGKEREGVATLVTWAERTAYADSVKGRFTISQDRAKNTVYLQMNGLKPEDTAMYYCAAAASTAVRLLDPGDFAYWGQGTQVTVSS
notes: as for B3
Regarding B14, the binding entry is given as “binds”.

B15: AS64137 (VHH)
VHH: QVRLVESGGGSVQAGGSLRLSCAASGSTYSTNFMGWFRQAPGKEREGVATLVTWVERTAYADSVKGRFTISQDRAKNTVYLQMNSLKPEDTAMYYCAAAAASTDVRLLDPGDFAYWGQGTQVTVSS
notes: as for B3
B15: the binding result is reported as “binds”.

B16: AS63932 (VHH)
VHH: QVQLEESGGGSVQAGGSLRLSCVASGYTYGSTFMGWFRQNPGKEREGVAVIYTGGGSTWYASSVKGRFTISQDNAKNTVYLQMNSLKPEDTAMYYCAARYGSGNVNYWGQGTQVTVSS
notes: as for B3
Regarding B16, the binding entry is recorded as “binds”.

B17: AS64123 (VHH)
VHH: QVQLAESGGGSVQAGGSLRLSCAASGYTYTSNWLGWFRQAPGKEREEVAIIYTGSGSTHYRSSVKGRFTISQDNAKNTVYLQMNSLKPEDTAMYYCAARFSEYNYWGQGTQVTVSS
notes: as for B3
B17: the binding entry is “binds”.

B18: AS63999 (VHH)
VHH: EVQLVESGGGSVQAGGSLRLSCAASGYTYSSNWMGWFRQAPGKEREEVAIIYTGGISTHYRSSVKGRFTISQDNAKNTVYLQMNSLKPEDTAMYYCAARYTDYNYWGQGTQVTVSS
notes: as for B3
Regarding B18, the binding result was “binds”.

B19: AS64072 (VHH)
VHH: QVQLVESGGGSVQAGGFLRLSCALSGYSYYINLMAWFRQAPGKEREAVAAHGPVSGTAYYTDSVKGRFTISRDPGKNTMYLQMFSLQPEDTALYYCAAETTMGWAHERGYRYWGQGTQVTVSS
notes: as for B3
With B19, the binding entry is “binds”.

B20: AS64097 (VHH)
VHH: QVHLMESGGGSVQAGGSLRLSCEASGYTYSRNCMGWFRQAPGKEREGVAAINTGGGSTYYADSLEGRFTISQDNAKNTMYLQMNSLKPEDTAMYYCAAGPDLGGSWCRPVERAFTYWGQGTQVTVSS
notes: as for B3
Take B20: the binding entry is reported as “binds”.

B21: AS64130 (VHH)
VHH: EVQLAESGGGSVQAGGSLRLSCAASGYTYRSNFMGWFRQAPAKEREGVATIDSRGTITYYADSVKGRFTISQDNEKNTVYLQMNSLKPEDTAMYYCAAGGPRTNDDRWYPLRPPGYNYWGQGTQVTVSS
notes: as for B3
B21: the binding result is on record as “binds”.

B22: AS63930 (VHH)
VHH: EVQLAESGGGSVQAGGSLRLSCAASGYTYSGNYMAWFRQAPGNEREGVAVVYNIDGGGRFTTYADSVKGRFTISRGNDKNTVYLQMNSLKPEDSGMYYCAAEVADPTWGSRDQRRYKYWGQGTQVTVSS
notes: as for B3
With B22, the binding entry is on record as “binds”.

B23: AS75378 (VHH)
VHH: QVQLEESGGGSVQAGGSLRLSCVVSGNTRSTTYMGWFRQAPGKEREGVAIVYTGGRDTYYAASVKGRFTISQDNAKTTIYLQMNSLEPEDTAMYYCAARSYEYTYWGRGTQVTVSS
notes: as for B3
Take B23: the binding entry was “binds”.

B24: AS64160 (VHH)
VHH: EVQLVESGGGSVQAGGSLRLSCAASVYTSSSYCMGWFRQAPGKEREGVAAMCFGGLVTHYADSVKGRFTISQDNAKNTVYLQMNSLKPEDTAMYYCAADFGRDKNYLRPLLPHAYNYWGQGTQVTVSS
notes: as for B3
For B24, the binding entry is “binds”.

B25: AS64114 (VHH)
VHH: QVQLQESGGGSVQAGGSLTLSCEASGNTYSTNYMGWFRQAPGKEREEVAVIYTRGGHTYYVDSVRGRFTISQDNAKNTVYLQMNSLKPEDTAMYYCAAASRHRLRLNNPRDYDYWGQGTQVTVSS
notes: as for B3
As for B25, the binding entry is given as “binds”.

B26: AS64380 HCAb (Fc fusion, not shown: a dimerising Fc or GST)
chain: EVQLVESGGGSVQAGGSLTLSCEASGNTYSSNYMGWFRQAPGKEREEVAVIYTRGGHTYYVDSVRGRFTISQDNAKNTVYLQMNSLKPEDTAMYYCAASSRHRLGLNNPRDYDYWGQGTQVTVSS
notes: as for B13
As for B26, the binding result is “binds”.

B27: AS64597 (VHH)
VHH: QVHLVESGGGSVQAGGSLRLSCAASGYTYRVNFMGWFRQTPGKEREGVATIDSGVGTTYYADSVKGRFTISHNNAKNTIYLQMNSLKPEDTAMYYCAAGGPPTDGDRWYPLRPPGYNYWGQGTQVTVSS
notes: as for B3
On to B27, for which the binding result is listed as “binds”.

B28: AS64300 (VHH)
VHH: QVHLVESGGGSVQTGGSLRLSCAVSGDIYNLMSMAWFRRAPGKEREGVAYINTIIGNTYYTDSVKGRFTISRDNSKNTLYLQMNNLKPEDTAMYYCAAFNYGGAWYEERSYKYWGQGTQVTVSS
notes: as for B3
Regarding B28, the binding result is recorded as “binds”.

B29: AS75383 (VHH)
VHH: EVQLAESGGGSVQAGGSLRLSCVASGYTFSSYCLGWFRQAPGKQRQGVATFNNRGVANYHDSVKGRFTASVDNAKNTLLLQMNSLEPDDTAMYYCAADRRYGRQWYQPCEWNTWGQGTQVTVSS
notes: as for B3
B29: the binding entry was “binds”.

B30: AS75751 (VHH)
VHH: QVRLVESGGGSVQAGGSLRLSCVASGYFYNTYYFMGWFRQAPGKEREGVAAIDTDGRTSYADSVKGRFTISKDNAKNTLYLQMNSLKPEDTAMYYCAAGFGYMNVIQALNGMRQNPDYWGQGTQVTVSS
notes: as for B3
As to B30, the binding result is recorded as “binds”.

B31: AS56704 Fab (Fab, V domains shown)
VH: EVQLVESGGGLVQPGGSLRLSCAASGFNISSSYMHWVRQAPGKGLEWVAYIYPSYGYTSYADSVKGRFTISADTSKNTAYLQMNSLRAEDTAVYYCARGGYYYHGMDYWGQGTLVTVSS
VL: DIQMTQSPSSLSASVGDRVTITCRASQSVSSAVAWYQQKPGKAPKLLIYSASSLYSGVPSRFSGSRSGTDFTLTISSLQPEDFATYYCQQASWSPITFGQGTKVEIK
Turning to B31, the binding entry is given as “binds”.
